The supplement of paper PMC10849652
The other results are listed elsewhere or left out.

The chains behind the UniProt entries cited, without tags or fusion partners. Where a name states a change or a piece, a line headed by the entry shows the natural chain unless it says otherwise.
UniProt P50148, whole entry, looked up: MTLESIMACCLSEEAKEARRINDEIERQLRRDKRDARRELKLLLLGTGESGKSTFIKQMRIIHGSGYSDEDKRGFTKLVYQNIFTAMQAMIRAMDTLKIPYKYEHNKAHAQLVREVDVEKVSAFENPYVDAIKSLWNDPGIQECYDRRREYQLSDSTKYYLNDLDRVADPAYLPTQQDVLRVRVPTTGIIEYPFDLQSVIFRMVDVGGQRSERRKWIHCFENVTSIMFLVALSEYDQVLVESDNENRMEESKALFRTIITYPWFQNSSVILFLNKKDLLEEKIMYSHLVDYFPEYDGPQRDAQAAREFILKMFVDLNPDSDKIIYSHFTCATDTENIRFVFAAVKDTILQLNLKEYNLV
UniProt O14653: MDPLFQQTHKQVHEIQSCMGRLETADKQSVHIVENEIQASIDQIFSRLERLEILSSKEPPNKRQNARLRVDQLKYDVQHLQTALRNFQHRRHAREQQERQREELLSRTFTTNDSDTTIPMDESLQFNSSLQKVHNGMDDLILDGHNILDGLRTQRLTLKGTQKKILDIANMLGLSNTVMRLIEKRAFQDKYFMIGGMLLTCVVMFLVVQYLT
UniProt Q68CQ7: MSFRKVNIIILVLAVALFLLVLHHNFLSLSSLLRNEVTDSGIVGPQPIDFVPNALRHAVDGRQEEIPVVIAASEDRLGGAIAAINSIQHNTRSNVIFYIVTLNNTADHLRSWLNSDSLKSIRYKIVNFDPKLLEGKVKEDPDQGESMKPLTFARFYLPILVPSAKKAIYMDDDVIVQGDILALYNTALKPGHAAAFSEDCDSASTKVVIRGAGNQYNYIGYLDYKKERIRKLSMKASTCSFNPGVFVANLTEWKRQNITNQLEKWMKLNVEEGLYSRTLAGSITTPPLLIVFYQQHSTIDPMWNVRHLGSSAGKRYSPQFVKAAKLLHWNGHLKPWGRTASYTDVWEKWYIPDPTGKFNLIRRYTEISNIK
UniProt P60983, whole entry, looked up: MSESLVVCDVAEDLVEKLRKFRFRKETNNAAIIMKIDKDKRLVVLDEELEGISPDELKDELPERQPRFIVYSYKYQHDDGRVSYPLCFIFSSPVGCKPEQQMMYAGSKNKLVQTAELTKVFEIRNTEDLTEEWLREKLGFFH
UniProt P49915: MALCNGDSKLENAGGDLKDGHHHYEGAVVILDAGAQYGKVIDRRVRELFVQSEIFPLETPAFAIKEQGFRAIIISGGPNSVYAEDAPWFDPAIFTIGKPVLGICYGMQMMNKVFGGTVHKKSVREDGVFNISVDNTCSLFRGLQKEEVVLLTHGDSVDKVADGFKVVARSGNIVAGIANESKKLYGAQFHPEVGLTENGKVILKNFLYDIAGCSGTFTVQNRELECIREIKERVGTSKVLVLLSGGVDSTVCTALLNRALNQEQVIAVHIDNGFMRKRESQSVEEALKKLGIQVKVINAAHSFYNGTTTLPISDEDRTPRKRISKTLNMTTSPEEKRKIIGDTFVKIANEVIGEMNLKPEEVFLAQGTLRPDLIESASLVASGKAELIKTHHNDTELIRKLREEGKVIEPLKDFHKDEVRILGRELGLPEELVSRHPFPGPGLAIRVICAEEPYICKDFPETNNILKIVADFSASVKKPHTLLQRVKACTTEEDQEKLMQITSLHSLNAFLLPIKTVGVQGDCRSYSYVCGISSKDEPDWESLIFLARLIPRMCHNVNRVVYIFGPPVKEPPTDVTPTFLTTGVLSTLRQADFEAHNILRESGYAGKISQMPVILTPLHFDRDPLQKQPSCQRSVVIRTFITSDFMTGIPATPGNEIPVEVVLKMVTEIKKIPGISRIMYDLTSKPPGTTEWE
UniProt Q53EU6: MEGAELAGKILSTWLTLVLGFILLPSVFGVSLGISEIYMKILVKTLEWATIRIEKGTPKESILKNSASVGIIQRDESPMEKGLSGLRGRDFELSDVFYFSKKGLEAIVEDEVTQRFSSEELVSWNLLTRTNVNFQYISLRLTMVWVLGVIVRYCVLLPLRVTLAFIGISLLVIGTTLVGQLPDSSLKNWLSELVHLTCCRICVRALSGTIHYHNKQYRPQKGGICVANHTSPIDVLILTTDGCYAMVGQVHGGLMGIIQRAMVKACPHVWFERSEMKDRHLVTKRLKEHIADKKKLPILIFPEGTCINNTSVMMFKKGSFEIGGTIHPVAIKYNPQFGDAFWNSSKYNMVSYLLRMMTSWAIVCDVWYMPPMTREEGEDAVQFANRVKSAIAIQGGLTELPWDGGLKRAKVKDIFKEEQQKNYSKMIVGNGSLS
UniProt Q9HC44: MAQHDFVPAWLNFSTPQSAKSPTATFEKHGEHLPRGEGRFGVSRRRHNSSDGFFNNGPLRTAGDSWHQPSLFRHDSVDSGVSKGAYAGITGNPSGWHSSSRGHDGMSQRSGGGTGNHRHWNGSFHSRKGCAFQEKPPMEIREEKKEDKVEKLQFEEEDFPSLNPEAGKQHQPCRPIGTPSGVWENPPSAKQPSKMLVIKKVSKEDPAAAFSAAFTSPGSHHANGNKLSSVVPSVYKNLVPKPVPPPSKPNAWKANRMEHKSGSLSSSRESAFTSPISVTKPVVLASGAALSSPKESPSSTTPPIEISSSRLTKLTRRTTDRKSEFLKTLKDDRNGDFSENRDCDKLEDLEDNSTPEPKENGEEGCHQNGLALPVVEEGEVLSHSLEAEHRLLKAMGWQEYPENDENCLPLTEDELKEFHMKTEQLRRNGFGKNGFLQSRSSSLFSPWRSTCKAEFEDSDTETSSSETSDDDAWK
UniProt Q8IXQ4: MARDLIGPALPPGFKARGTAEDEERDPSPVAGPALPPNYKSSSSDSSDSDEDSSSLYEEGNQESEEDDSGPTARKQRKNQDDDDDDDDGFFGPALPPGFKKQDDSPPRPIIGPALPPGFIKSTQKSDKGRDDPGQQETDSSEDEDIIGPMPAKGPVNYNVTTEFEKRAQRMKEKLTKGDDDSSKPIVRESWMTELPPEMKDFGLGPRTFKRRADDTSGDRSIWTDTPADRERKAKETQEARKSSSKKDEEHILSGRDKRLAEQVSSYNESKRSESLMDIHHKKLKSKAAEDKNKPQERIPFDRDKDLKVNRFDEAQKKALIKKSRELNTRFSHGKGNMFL
UniProt Q2TAP0: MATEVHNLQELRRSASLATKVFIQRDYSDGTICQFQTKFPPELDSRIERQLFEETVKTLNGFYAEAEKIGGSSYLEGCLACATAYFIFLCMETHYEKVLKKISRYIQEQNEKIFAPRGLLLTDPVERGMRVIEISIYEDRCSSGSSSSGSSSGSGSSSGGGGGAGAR
UniProt Q9UBQ7: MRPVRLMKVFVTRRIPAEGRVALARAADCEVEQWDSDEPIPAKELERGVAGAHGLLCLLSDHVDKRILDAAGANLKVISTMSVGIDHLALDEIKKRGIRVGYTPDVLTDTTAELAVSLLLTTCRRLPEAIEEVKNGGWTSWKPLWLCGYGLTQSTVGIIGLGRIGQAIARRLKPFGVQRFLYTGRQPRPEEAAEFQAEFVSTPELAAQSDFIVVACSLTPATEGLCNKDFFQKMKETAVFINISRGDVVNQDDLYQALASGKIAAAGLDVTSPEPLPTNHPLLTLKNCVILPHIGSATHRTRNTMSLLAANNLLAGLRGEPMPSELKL
UniProt Q8IW92: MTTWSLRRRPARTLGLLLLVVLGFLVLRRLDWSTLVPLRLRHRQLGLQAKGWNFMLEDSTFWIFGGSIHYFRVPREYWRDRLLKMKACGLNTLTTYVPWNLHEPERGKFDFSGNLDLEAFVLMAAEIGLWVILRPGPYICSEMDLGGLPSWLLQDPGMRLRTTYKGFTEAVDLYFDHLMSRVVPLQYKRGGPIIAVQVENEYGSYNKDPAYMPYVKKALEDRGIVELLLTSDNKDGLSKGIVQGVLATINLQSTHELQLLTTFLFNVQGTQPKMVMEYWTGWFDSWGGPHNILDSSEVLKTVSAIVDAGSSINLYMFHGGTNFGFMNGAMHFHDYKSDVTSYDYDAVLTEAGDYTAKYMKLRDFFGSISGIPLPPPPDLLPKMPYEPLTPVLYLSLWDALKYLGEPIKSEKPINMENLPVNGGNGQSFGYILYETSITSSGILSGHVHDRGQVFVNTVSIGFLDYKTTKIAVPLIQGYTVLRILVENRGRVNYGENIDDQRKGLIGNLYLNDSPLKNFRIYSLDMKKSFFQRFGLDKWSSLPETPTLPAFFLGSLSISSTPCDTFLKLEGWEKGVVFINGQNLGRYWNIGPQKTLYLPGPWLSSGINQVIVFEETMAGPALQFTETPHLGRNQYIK
UniProt Q96IJ6: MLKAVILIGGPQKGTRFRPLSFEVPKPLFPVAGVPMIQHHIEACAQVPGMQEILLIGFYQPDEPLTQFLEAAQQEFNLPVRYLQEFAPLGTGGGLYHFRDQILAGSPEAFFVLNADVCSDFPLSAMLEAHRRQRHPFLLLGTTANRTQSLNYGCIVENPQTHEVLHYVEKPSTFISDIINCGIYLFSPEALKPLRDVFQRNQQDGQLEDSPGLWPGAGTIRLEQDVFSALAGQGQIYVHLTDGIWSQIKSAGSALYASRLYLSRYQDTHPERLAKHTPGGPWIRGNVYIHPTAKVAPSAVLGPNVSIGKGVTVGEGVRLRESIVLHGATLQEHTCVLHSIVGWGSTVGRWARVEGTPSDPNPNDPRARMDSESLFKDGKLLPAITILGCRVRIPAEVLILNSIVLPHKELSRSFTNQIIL
UniProt P43304: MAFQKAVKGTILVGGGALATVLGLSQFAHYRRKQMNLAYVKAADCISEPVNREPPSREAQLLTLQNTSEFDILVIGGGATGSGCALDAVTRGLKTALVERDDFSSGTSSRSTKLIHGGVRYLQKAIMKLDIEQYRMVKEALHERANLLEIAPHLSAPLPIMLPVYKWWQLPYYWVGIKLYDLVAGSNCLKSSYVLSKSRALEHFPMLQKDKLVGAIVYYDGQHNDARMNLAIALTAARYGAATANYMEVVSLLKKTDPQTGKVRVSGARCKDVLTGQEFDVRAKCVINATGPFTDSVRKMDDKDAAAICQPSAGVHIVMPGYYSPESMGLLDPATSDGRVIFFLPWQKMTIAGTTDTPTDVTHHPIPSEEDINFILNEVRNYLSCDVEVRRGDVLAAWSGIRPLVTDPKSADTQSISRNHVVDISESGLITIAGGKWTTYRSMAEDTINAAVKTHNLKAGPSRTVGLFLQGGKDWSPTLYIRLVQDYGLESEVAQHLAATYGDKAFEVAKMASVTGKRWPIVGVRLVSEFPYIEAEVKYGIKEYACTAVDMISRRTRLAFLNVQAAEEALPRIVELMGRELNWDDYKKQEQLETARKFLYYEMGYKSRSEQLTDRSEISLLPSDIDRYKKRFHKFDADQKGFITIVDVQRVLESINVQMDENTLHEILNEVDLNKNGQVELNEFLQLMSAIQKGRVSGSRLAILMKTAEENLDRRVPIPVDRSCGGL
UniProt O75791: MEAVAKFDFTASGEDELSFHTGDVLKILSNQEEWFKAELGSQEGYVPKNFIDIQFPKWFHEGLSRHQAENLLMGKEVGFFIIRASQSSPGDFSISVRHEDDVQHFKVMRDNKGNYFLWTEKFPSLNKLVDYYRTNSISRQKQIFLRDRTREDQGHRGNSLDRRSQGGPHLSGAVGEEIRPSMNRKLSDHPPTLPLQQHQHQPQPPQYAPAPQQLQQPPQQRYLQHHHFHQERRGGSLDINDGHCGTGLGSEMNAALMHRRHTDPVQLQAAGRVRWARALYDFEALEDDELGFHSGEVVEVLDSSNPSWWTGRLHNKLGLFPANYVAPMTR
UniProt P04899, whole entry, looked up: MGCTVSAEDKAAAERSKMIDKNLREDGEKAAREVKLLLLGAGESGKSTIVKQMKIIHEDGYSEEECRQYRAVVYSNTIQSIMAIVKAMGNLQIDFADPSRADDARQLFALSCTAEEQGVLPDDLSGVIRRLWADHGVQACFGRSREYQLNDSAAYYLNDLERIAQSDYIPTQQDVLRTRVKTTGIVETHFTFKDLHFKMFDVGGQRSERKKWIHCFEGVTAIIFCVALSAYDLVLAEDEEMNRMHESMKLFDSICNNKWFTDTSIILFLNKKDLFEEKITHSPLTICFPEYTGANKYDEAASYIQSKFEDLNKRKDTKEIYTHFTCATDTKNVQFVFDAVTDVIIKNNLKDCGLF
UniProt Q14691: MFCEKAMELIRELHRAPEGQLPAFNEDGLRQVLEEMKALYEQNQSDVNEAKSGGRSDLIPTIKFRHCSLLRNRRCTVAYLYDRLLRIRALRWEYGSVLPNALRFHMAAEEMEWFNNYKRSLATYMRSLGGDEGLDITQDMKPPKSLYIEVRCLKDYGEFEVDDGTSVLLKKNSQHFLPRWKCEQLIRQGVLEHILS
UniProt Q8WWB7: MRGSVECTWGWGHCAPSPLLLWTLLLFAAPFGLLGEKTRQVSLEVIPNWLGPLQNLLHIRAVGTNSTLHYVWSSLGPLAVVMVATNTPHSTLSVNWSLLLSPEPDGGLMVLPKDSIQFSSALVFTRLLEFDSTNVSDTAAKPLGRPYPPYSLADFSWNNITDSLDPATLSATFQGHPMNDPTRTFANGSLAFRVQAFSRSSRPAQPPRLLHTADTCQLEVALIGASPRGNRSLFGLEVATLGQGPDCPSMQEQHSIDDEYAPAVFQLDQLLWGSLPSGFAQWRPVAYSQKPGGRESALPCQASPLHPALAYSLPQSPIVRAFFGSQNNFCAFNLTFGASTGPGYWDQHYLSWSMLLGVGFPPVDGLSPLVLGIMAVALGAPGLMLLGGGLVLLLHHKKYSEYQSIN

These targets were tested with c1cn2cc(-c3ccc4cn[nH]c4c3)nc(Nc3ccc(N4CCOCC4)cc3)c2n1 [entospletinib] (assay: log2 fold change, soluble protein after heating vs DMSO (PISA); higher = thermal stabilisation; K562 cells, 10 uM, 30 min; active = over 0.2 and 3.5 SD of the protein, either way, in both replicates (recomputed)).
In short: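 K562 cells at 2×10^6 cells/mL were treated for 30 min with 10 μM compound, and aliquots were heated for 3 min over 48°C-58°C before pooling. Extraction used PBS with 0.5% NP-40 at 4°C, and soluble protein was the supernatant after 21,000xg for 90 min, measured by TMTpro 16plex LC-MS/MS with channel sums equalised. Thermal stability values, relative to control samples and from duplicates, are log2 fold changes.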

log2 fold change, inactive:
GORASP1 (UniProt Q9BQQ3) 0.153
GIPC1 (UniProt O14908) 0.052
GMDS (UniProt O60547) -0.039
GNAQ (UniProt P50148) 0.006
GPATCH4 isoform 3 (UniProt Q5T3I0) 0.116
GP1BB isoform 2 (UniProt P13224) 0.021
GOSR2 isoform 2 (UniProt O14653) -0.095
GNL2 (UniProt Q13823) 0.378
GLT8D1 (UniProt Q68CQ7) -0.279
GMFB (UniProt P60983) -0.011
GMPS (UniProt P49915) -0.025
GOLM1 (UniProt Q8NBJ4) 0.052
GPAT3 (UniProt Q53EU6) 0.068
GPATCH8 (UniProt Q9UKJ3) -0.073
GMPR2 isoform 2 (UniProt Q9P2T1) -0.012
GPATCH11 (UniProt Q8N954) -0.112
GOLGA4 isoform 5 (UniProt Q13439) 0.05
GPBP1L1 (UniProt Q9HC44) 0.058
GPALPP1 (UniProt Q8IXQ4) -0.009
GPR108 (UniProt Q9NPR9) 0.075
GOLGA7B (UniProt Q2TAP0) -0.004
GRHPR (UniProt Q9UBQ7) 0.027
GOT1 (UniProt P17174) -0.021
GLB1L2 (UniProt Q8IW92) -0.024
GMPPA (UniProt Q96IJ6) -0.01
GOLIM4 (UniProt F8W785) 0.035
GOLGA7 (UniProt Q7Z5G4) 0.035
GPD2 (UniProt P43304) 0.016
GRAP2 (UniProt O75791) 0.02
GNAI2 isoform 4 (UniProt P04899) 0.144
GNA12 (UniProt Q03113) -0.151
GINS1 (UniProt Q14691) -0.026
GLMP (UniProt Q8WWB7) 0.008

2 records drawn at random from those above, as already listed:
log2 fold change, inactive:
GRHPR (UniProt Q9UBQ7) 0.027
GPAT3 (UniProt Q53EU6) 0.068
